From the supplement of paper PMC8256030 come the findings set out here.

Molecules are shown by their SMILES. The list shows a part of the results. This data set is noisy: repeats of one test often differ as much as different tests do.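 HEK293T cells were given each compound shortly before transfection with a reporter in which red mCherry is followed by the SARS-CoV-2 frameshift element and then GFP in the −1 frame, so GFP appears only after frameshifting.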

This test relates to HEK293T. Put plainly: percent viability (nuclei count) relative to control; higher = more viable cells. The note with it: 10 µM; 24 h.
On to `NC[C@H]1O[C@H](O[C@H]2[C@H](O)[C@@H](O[C@H]3O[C@H](CO)[C@@H](O)[C@H](N)[C@H]3O)[C@H](N)C[C@@H]2N)[C@H](N)[C@@H](O)[C@@H]1O` [bekanamycin], for which the percent viability stood at 263%.
As for `O=C(O)C1(C(=O)O)CCC1.[NH2-].[NH2-].[Pt+2]` [Carboplatin], the figure is 240%; as for `CCC[S+]([O-])c1ccc2[nH]c(NC(=O)OC)nc2c1` (stereo not drawn) [Ricobendazole], 135%.
For `NC(=O)C(c1ccccc1)(c1ccc(F)cc1)c1ccc(F)cc1` [senicapoc], the percent viability came to 93.8%.
`CC(CCc1ccccc1)NCC(O)c1ccc(O)c(C(N)=O)c1` (stereo not drawn) [labetalol]: the percent viability was determined as 221%.
For `C[C@H]1c2cccc(O)c2C(O)=C2C(=O)[C@]3(O)C(O)=C(C(N)=O)C(=O)[C@@H](N(C)C)[C@@H]3[C@@H](O)[C@@H]21`, the percent viability was determined as 124%.
As for `Nc1ccc(C(=O)OCC(O)CO)cc1` (stereo not drawn) [lisadimate], the percent viability amounted to 141%.
Take `CC(=O)C(=Cc1cc(O)c(O)c([N+](=O)[O-])c1)C(C)=O` [nitecapone]: the percent viability stood at 246%.
On to `CO/N=C(\C(=O)N[C@@H]1C(=O)N2C(C(=O)O)=C(COC(N)=O)CS[C@H]12)c1ccco1` [Zinacef], for which the percent viability amounted to 180%.
As for `CCn1cc(C(=O)O)c(=O)c2cnc(N3CCNCC3)nc21` [pipemidic acid], the figure is 76%; as for `NNc1nncc2ccccc12` [hydralazine], 144%.
In the case of `CN[C@H](C(=O)N[C@H](C(=O)N(C)[C@H](/C=C(\C)C(=O)O)C(C)C)C(C)(C)C)C(C)(C)c1ccccc1` [taltobulin], the percent viability amounted to 14.2%.
Regarding `CC(OCCN1CCCCCC1)(c1ccccc1)c1ccc(Cl)cc1` (stereo not drawn) [setastine], the percent viability turned out to be 282%.
